# In paper PMC12561399:
# These are yes or no findings as the source states them, for the method shown. In cells and extracts the contact can be indirect. These calls come from enrichment with a bait or labelling near it, and not all partners need be listed.
# T1: periostin (POSTN) (mouse (endogenous in mouse TDSCs and mouse tendon tissue)) (UniProt Q62009)
# T1 sequence: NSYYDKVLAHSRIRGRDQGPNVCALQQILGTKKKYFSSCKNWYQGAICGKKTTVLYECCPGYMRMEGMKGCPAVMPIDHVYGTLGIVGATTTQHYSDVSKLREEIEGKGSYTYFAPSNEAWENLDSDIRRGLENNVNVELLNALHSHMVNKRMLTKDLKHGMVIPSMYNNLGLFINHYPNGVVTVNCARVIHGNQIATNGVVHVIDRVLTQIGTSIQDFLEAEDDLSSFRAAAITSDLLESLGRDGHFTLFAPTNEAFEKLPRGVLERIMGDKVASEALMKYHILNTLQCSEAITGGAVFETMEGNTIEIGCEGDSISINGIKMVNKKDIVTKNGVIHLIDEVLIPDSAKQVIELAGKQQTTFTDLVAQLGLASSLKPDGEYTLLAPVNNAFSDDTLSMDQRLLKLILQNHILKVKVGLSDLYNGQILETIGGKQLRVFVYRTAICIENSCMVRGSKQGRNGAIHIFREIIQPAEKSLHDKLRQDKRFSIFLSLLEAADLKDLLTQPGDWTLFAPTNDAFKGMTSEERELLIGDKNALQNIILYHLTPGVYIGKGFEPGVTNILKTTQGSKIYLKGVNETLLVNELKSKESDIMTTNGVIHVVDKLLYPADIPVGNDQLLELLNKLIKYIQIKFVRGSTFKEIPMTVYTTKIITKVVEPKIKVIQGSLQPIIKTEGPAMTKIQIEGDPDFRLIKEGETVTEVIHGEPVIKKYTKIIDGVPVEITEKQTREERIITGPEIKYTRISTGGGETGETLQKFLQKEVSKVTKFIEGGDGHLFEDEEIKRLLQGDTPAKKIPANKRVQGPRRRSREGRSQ
# Target: T1, periostin (POSTN) (mouse (endogenous in mouse TDSCs and mouse tendon tissue))
# Test: affinity purification with mass spectrometry; molecules binding to POSTN in sham versus tendon injury (HO model) tissue at 7 days, N = 3; ranked by Score Sequest HT; how POSTN was isolated is not told
binder,measurement,value
"Protein Tyrosine Kinase 7 (PTK7) (receptor, UniProt Q8BKG3 23-1062) AIVFIKEPSSQDALQGRRALLRCEVEAPDPVHVYWLLNGVPVQDTERRFAQGSSLSFAAVDRLQDSGAFQCVARDNVTGEEVRSTNASFNIKWIEAGPVVLKHPASEAEIQPQTQVTLRCHIDGHPRPTYQWFRDGTPLSDDQSTHTVSSRERNLTLRPASPEHSGLYSCCAHNAFGQACSSQNFTLSVADESFARVVLAPQDVVVARNEEAMFHCQFSAQPPPSLQWVFEDETPITNRSRPPHLRRAVVFANGSLLLTQVRPRNAGVYRCIGQGQRGPPIVLEATLHLAEIEDMLPFEPRVFIAGDEERVTCPAPQGLPTPSVWWEHAGVPLPAHGRVHQKGLELVFVTIAESDTGVYTCHASNLAGQRRQDVNITVATVPTWLRKPQDSQLEEGKPGYLHCLTQATPKPTVIWYRNQMLISEDSRFEVSKNGTLRINSVEVYDGTLYRCVSSTPAGSIEAQARVQVLEKLKFTPPPQPQQCMEFDKEATVPCSATGREKPTVKWVRADGSSLPEWVTDNAGTLHFARVTRDDAGNYTCIASNEPQGQIRAHVQLTVAVFITFKVEPERTTVYQGHTALLRCEAQGDPKPLIQWKGKDRILDPTKLGPRMHIFQNGSLVIHDVAPEDSGSYTCIAGNSCNIRHTEAPLLVVDKPVMEDSEGPGSPPPYKMIQTIGLSVGAAVAYIIAVLGLMFYCKKRCKAKRLQKQPEGEEPEMECLNGGPLQNGQPSAEIQEEVALTSLGSGPPATNKRHSAGDRMHFPRASLQPITTLGKSEFGEVFLAKAQGVEEGATETLVLVKSLQSRDEQQQLDFRREVEMFGKLNHANVVRLLGLCREAEPHYMVLEYVDLGDLKQFLRISKNKDEKLKSQPLSTKQKVALCSQVALGMEHLSNNRFVHKDLAARNCLISAQRQVKVSALGLSKDVYNSEYYHFRQAWVPLRWMSPEAVLEGDFSTKSDVWAFGVLMWEVFTHGEMPHGGQADDEVLADLQAGKARLPQPEGCPSKLYRLMQRCWAPNPKDRPSFSEIASTLGDSPADSKQ",binding,binds
